Source: patent US20210130799

Assays:
Experiment in all cases: enzyme reaction in vitro
Conditions in all cases: purified recombinant protein
[1] = test system: StCsm6 (Streptococcus thermophilus DGCC8004)
[2] = target: T1, TtCsm6 (Thermus thermophilus) (UniProt Q53W17)
T1 sequence (looked up, limits assumed): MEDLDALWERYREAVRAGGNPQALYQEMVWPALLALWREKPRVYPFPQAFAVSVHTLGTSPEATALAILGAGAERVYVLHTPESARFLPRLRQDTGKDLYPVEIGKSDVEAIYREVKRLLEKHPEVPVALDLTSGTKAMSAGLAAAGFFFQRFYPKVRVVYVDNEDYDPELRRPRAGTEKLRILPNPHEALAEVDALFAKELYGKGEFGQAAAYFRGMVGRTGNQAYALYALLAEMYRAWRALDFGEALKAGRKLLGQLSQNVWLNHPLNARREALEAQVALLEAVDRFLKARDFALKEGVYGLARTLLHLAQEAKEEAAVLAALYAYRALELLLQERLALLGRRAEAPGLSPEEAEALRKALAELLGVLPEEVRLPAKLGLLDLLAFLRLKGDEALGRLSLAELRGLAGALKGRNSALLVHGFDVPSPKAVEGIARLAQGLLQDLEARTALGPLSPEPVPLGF

[3] = test system: StCsm6' (Streptococcus thermophilus DGCC8004)
[4] = cyclic, 3'-5' linked, no RNase stimulation, only the motif is given
[5] = no ssDNA hydrolysis, single-stranded DNA
[6] = 1 uM StCsm6 without cyclic oligoadenylates, purine dinucleotide preference, label: 5'-33P
[7] = 0.5 uM cyclic oligoadenylates, 1 mM EDTA, label: 5'-33P
[8] = no dsRNA hydrolysis, label: 5'-33P
[9] = GA preferred, with c(AMP)6 also other purine sites, especially AG, label: 5'-33P

AAAAA [c(AMP)5]
functional effect [1, 4]: not active | functional effect ([2]; cyclic, 3'-5' linked, no RNase stimulation at 500 nM, only the motif is given): not active | functional effect [3, 4]: not active

AAATATAAGGTGGAATAAGTGAACAGAATTAAACAGTTACGAAAAAAAAAAA [ssDNA S3/2]
activity on this sequence [1, 5]: not active | activity on this sequence [3, 5]: not active

GGGAAACAGCAUAGCAAGUUAAAAUAAGGCUAGUCCGUUAUCAACUUGAAAAAGUGGCACCGAGUCGGUGCUUUUUUU [ssRNA NSc]
activity on this sequence [1, 6]: active

GGGAAACAGCUAUGACCAUGAUUACGAAUUCACCAUGUCCUCUUCCUCUUUAGCGUUUAGAAUUUCAAUUCGAGCUCGGUACCC [ssRNA NSb]
activity on this sequence [1, 7]: active | activity on this sequence [3, 7]: active

GGGCGGCAAAUUGAGGAUUUCGUAACUGUUUAAUUCUGUUCACUUAUUCCACCAACAAAAGGUGGCGA [RNA NS]
activity on this sequence ([2]; stimulated by c(AMP)4 only, 1 mM EDTA, label: 5'-33P): active

GGGUAAAUCUUGCAGAAGCUACAAAGAUAAGGCUUCAUGCCGAAAUCAACACCCUGUCAUUUUAUGGCAGGGUGUUUUCG [ssRNA NSd]
activity on this sequence [1, 6]: active

GGGUACCGAGCUCGAAUUGAAAUUCUAAACGCUAAAGAGGAAGAGGACAUGGUGAAUUCGUAAUCAUGGUCAUAGCUGUUUCCC / GGGAAACAGCUAUGACCAUGAUUACGAAUUCACCAUGUCCUCUUCCUCUUUAGCGUUUAGAAUUUCAAUUCGAGCUCGGUACCC [dsRNA NSa/NSb]
activity on this sequence [1, 8]: not active | activity on this sequence [3, 8]: not active

GGGUACCGAGCUCGAAUUGAAAUUCUAAACGCUAAAGAGGAAGAGGACAUGGUGAAUUCGUAAUCAUGGUCAUAGCUGUUUCCC [ssRNA NSa]
activity on this sequence [1, 7]: active | activity on this sequence [3, 7]: active

GGGUUUCCCAACCAUCCAGCCUACCGGCCGUCCGACCUGCCUUCCCUUUCCC [ssRNA NSe]
activity on this sequence [1, 9]: active | activity on this sequence [3, 9]: active

For some of these results: Protein sequences can lack the tags named with them. The exact form of at least one protein or probe is not confirmed. No signal at the amounts used counts as a negative.
